# PubChem BioAssay AID652272 – Drosophila RNAi Screening Center – 2013
# Screen: 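Genes whose knock-down decreases or increases Hedgehog reporter output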 (primary screen)
# System: Drosophila clone 8 (Cl8) cells
# Reagent: long dsRNA against Drosophila genes
# Measurement: 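Firefly light from a Hedgehog-responsive ptc promoter reporter and Renilla reference light, both read on a plate reader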
# Direction: firefly Hh reporter signal: higher = more ptc reporter light; Renilla reference signal: higher = more Renilla control light
# Hit rule: 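Hit when the z-score averaged over two replicates is under -2 or over +3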
# Calls: active = hit: reporter lowered or raised; inactive = not a hit
# In all, the deposit lists about 21,000 reagents; below is an unselected part of those that have a named target and a result. Over the whole deposit, 503 (2.4%) were called active. 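Raw plate light values, not normalised; calls rest on replicate z-scores that were not deposited; hits include reporter decreases as well as increases.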 Names joined by + are all predicted targets of the reagent. Not stated in the record: the amount of reagent, the time to read-out.
predicted target,dsRNA,"firefly Hh reporter signal, replicate 1","firefly Hh reporter signal, replicate 2","firefly Hh reporter signal, replicate 3","Renilla reference signal, replicate 1","Renilla reference signal, replicate 2",outcome
CG33958 (GeneID 37088),DRSC06472,62280,53128,,1706,3715,inactive
CG33958 (GeneID 37088),DRSC06944,1.04e5,59915,,2454,4000,inactive
Atf3 (GeneID 43867),DRSC17225,53978,43595,,4022,1925,active
Ir93a (GeneID 42471),DRSC15212,1.42e5,86896,,5821,3060,inactive
Ir93a (GeneID 42471),DRSC15213,7.56e5,1.25e5,,37744,3205,inactive
CG15083 (GeneID 37175),DRSC06514,96459,44496,,2066,2181,inactive
CG33981 + fab1,DRSC07412,1.24e5,1.04e5,,5784,4324,inactive
Fas1 (GeneID 42025),DRSC16669,70272,1.07e5,,1971,2810,inactive
par-1 (GeneID 2768852),DRSC05792,40165,86486,,1963,5272,active
par-1 (GeneID 2768852),DRSC06098,88726,77778,,1810,4964,inactive
par-1 (GeneID 2768852),DRSC06616,88493,85842,,4774,3846,inactive
par-1 (GeneID 2768852),DRSC07660,74653,72027,,2323,5560,inactive
par-1 (GeneID 2768852),DRSC07661,78976,75324,,2204,5379,inactive
Arl6 (GeneID 37236),DRSC07031,1.07e5,65488,,2249,4855,inactive
G9a (GeneID 30971),DRSC18619,82771,2.40e5,,2059,9026,inactive
Mul1 (GeneID 38472),DRSC08174,82948,45376,,2613,3995,inactive
rush (GeneID 31105),DRSC18568,1.35e5,1.12e5,,2365,3520,inactive
TyrRS-m (GeneID 37965),DRSC04286,1.05e5,78098,,3781,2228,inactive
Treh (GeneID 45368),DRSC04548,82123,54396,,3824,2486,inactive
CG42372 + CG30100,DRSC05602,1.72e5,2.13e5,,4853,9712,inactive
CG33263 (GeneID 2768952),DRSC10108,29952,40720,61830,4125,4408,inactive
CG33521 (GeneID 3346141),DRSC17179,4.60e5,1.83e5,,22682,4117,inactive
CG33521 (GeneID 3346141),DRSC17211,97696,2.27e5,,2528,8407,inactive
CG17666 (GeneID 39452),DRSC10276,44128,36273,71301,4777,5210,inactive
CG11162 (GeneID 32325),DRSC19391,1.84e5,3.96e5,,5168,15433,inactive
Gdh (GeneID 42832),DRSC16679,85257,67793,,3616,2496,inactive
CG14424 (GeneID 31279),DRSC18472,94811,2.21e5,,3667,7643,inactive
heph (GeneID 48571),DRSC14082,7.14e5,2.74e5,,30849,5080,inactive
heph (GeneID 48571),DRSC14085,4.58e5,2.00e5,,21293,3180,inactive
heph (GeneID 48571),DRSC15436,62864,1.66e5,,2547,6744,inactive
heph (GeneID 48571),DRSC16783,59719,1.64e5,,2176,6475,inactive
CG7369 (GeneID 2768961),DRSC11822,1.34e5,4.79e5,1.22e5,5136,26925,inactive
Trp1 (GeneID 34333),DRSC03465,1.28e5,42437,,2773,5370,inactive
LManV (GeneID 34205),DRSC03223,70658,70251,,3037,2816,inactive
Dgat2 (GeneID 35719),DRSC06803,1.16e5,98688,,4770,3713,inactive
CG7601 (GeneID 43502),DRSC14131,83660,1.17e5,,1840,2889,inactive
fdl (GeneID 250735),DRSC07279,83700,53876,,2406,4197,inactive
CG17544 (GeneID 35213),DRSC02624,53712,34018,,2576,1443,inactive
CkIIbeta (GeneID 32132),DRSC20230,56501,1.70e5,,2773,9377,inactive
DNAlig3 (GeneID 41518),DRSC15201,96352,1.60e5,,3168,3872,inactive
Paris (GeneID 33657),DRSC00451,1.07e5,1.03e5,,4394,4204,inactive
S-Lap1 (GeneID 38986),DRSC10627,1.51e5,1.03e5,,6450,4658,inactive
CG11836 (GeneID 43007),DRSC14396,1.08e5,67613,,3843,2365,inactive

Continued (5 carried over from the part before).
predicted target,dsRNA,"firefly Hh reporter signal, replicate 1","firefly Hh reporter signal, replicate 2","firefly Hh reporter signal, replicate 3","Renilla reference signal, replicate 1","Renilla reference signal, replicate 2",outcome
CkIIbeta (GeneID 32132),DRSC20230,56501,1.70e5,,2773,9377,inactive
DNAlig3 (GeneID 41518),DRSC15201,96352,1.60e5,,3168,3872,inactive
Paris (GeneID 33657),DRSC00451,1.07e5,1.03e5,,4394,4204,inactive
S-Lap1 (GeneID 38986),DRSC10627,1.51e5,1.03e5,,6450,4658,inactive
CG11836 (GeneID 43007),DRSC14396,1.08e5,67613,,3843,2365,inactive
sug (GeneID 36424),DRSC06855,65827,41537,,2741,1717,inactive
Set8 (GeneID 41743),DRSC15473,1.17e5,61603,,4680,2786,inactive
CG31142 (GeneID 251610),DRSC13647,51265,1.90e5,,12529,4764,inactive
CG8490 (GeneID 36338),DRSC07194,98182,78784,,4565,3221,inactive
Vha16-1 (GeneID 44307),DRSC05020,1.22e5,62916,,3252,5980,inactive
CG12608 (GeneID 32463),DRSC19472,1.55e5,78397,,3194,2427,inactive
CG5704 (GeneID 48613),DRSC08572,1.21e5,81072,,5976,3680,inactive
Hmgcr (GeneID 42803),DRSC16704,4.60e5,1.23e5,,21608,3179,inactive
fog (GeneID 33148),DRSC20646,73516,61616,,1431,1728,inactive
Ndc80 (GeneID 32316),DRSC20221,1.08e5,74364,,1832,1474,inactive
Sp7 (GeneID 40918),DRSC15461,78187,96352,,2832,2721,inactive
Taf3 (GeneID 43793),DRSC17170,82266,69077,,2186,2306,inactive
CG32436 (GeneID 40362),DRSC11683,82663,1.02e5,,2377,2501,inactive
CG32436 (GeneID 40362),DRSC11796,70516,78838,,2026,2048,inactive
Cad89D (GeneID 42006),DRSC15022,78976,71428,,3340,940,inactive
fok (GeneID 44380),DRSC02103,85578,43165,,2364,4688,inactive
CG13558 (GeneID 37719),DRSC04196,86589,53378,,2186,4044,inactive
CG15124 (GeneID 37256),DRSC06546,80530,63558,,2330,4165,inactive
d-cup (GeneID 41580),DRSC14846,91500,1.01e5,,3884,2120,inactive
Acsx3 (GeneID 42354),DRSC14309,77968,61271,,3387,2499,inactive
Klp68D (GeneID 39332),DRSC11206,72773,44848,,3146,2220,inactive
CG44153 (GeneID 34341),DRSC01118,4.50e5,1.74e5,,24051,7977,inactive
CG44153 (GeneID 34341),DRSC02228,1.14e5,48979,,4365,2176,inactive
CG44153 (GeneID 34341),DRSC02229,1.06e5,28822,,2720,3309,inactive
CG44153 (GeneID 34341),DRSC02231,1.27e5,61684,,3255,6154,inactive
CG44153 (GeneID 34341),DRSC02233,88492,40003,,2128,4035,inactive
CG44153 (GeneID 34341),DRSC02902,1.22e5,37720,,3292,3846,inactive
CG44153 (GeneID 34341),DRSC02903,1.37e5,44930,,3480,3992,inactive
ClC-a (GeneID 41428),DRSC14947,56966,1.19e5,,2210,3357,inactive
ClC-a (GeneID 41428),DRSC14948,95914,1.62e5,,3696,4608,inactive
ClC-a (GeneID 41428),DRSC16142,1.24e5,67884,,4490,2951,inactive
